Measurements: the supplement of paper PMC10849652
This is one part of the list.

Amino acid sequences for entries named in this document (tags omitted). A change or cut given only in a name is not applied to a line headed by its entry.
UniProt P06732: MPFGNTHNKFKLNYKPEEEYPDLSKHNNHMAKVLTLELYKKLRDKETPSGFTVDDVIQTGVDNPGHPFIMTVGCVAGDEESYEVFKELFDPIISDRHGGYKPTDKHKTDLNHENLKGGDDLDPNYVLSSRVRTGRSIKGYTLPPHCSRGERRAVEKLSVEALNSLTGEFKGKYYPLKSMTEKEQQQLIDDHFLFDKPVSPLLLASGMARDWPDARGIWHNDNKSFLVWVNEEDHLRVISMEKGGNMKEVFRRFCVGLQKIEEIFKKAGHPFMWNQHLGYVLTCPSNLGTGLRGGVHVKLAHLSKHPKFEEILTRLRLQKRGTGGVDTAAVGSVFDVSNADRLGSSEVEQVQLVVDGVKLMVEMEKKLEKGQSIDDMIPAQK
UniProt Q9NY35: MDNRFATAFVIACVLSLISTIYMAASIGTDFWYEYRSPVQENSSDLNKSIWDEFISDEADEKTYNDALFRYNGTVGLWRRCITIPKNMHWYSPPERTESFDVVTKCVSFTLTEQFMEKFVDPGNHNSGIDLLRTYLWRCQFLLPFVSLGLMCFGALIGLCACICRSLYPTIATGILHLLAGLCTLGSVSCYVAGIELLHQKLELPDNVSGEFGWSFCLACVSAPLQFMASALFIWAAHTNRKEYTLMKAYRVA
UniProt Q9NRP2: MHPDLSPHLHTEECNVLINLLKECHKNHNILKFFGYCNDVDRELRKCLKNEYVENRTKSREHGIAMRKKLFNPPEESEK
UniProt G5E9Z2: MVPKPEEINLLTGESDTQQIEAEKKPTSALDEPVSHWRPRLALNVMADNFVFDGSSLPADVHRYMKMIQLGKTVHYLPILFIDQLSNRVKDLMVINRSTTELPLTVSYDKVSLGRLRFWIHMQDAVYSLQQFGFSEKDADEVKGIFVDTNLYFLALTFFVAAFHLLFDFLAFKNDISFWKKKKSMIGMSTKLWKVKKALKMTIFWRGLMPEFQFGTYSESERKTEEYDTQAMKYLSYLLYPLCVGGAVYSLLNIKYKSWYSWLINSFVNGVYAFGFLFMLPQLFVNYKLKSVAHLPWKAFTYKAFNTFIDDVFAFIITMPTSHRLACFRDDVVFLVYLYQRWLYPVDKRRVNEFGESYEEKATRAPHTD
UniProt Q9P2E5: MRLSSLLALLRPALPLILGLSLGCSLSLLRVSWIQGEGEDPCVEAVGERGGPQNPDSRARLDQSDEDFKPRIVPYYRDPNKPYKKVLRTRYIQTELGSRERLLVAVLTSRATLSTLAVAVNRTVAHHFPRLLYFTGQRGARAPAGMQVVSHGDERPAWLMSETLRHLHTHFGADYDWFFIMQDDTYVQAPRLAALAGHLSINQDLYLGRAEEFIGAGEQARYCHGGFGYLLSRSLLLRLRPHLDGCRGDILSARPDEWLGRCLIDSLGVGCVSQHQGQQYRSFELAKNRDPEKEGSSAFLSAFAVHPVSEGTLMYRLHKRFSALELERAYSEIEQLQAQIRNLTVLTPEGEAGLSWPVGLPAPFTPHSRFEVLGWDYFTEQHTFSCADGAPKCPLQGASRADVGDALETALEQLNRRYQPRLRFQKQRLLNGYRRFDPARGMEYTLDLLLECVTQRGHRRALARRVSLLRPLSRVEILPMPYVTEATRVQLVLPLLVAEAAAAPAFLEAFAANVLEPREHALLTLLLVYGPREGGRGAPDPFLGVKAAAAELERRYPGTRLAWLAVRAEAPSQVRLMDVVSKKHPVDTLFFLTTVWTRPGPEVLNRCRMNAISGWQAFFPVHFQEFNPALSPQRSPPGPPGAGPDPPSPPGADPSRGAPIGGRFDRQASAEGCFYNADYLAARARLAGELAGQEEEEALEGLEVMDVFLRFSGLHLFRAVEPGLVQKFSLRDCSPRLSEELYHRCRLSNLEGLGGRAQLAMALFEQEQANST
UniProt Q96S66: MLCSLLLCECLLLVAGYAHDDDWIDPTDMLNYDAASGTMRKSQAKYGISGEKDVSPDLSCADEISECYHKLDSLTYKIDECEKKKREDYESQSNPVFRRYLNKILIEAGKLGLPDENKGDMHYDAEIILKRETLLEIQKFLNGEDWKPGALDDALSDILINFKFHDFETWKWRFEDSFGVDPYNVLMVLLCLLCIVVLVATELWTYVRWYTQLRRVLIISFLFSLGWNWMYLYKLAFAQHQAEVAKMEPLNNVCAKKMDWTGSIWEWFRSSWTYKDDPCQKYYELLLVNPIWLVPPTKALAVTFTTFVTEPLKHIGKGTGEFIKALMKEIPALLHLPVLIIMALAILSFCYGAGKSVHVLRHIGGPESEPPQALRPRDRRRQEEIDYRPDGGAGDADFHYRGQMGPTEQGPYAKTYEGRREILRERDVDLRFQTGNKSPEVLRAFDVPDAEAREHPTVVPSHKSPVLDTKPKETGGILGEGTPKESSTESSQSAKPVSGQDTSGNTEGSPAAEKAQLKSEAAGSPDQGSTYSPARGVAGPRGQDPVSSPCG
UniProt Q9BW66: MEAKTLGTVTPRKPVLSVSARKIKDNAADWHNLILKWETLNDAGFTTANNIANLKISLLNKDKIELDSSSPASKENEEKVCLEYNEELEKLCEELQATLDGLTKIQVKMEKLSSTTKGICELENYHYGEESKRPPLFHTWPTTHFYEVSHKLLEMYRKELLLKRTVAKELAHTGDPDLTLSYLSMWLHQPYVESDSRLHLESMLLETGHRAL
UniProt P02452, whole entry, looked up: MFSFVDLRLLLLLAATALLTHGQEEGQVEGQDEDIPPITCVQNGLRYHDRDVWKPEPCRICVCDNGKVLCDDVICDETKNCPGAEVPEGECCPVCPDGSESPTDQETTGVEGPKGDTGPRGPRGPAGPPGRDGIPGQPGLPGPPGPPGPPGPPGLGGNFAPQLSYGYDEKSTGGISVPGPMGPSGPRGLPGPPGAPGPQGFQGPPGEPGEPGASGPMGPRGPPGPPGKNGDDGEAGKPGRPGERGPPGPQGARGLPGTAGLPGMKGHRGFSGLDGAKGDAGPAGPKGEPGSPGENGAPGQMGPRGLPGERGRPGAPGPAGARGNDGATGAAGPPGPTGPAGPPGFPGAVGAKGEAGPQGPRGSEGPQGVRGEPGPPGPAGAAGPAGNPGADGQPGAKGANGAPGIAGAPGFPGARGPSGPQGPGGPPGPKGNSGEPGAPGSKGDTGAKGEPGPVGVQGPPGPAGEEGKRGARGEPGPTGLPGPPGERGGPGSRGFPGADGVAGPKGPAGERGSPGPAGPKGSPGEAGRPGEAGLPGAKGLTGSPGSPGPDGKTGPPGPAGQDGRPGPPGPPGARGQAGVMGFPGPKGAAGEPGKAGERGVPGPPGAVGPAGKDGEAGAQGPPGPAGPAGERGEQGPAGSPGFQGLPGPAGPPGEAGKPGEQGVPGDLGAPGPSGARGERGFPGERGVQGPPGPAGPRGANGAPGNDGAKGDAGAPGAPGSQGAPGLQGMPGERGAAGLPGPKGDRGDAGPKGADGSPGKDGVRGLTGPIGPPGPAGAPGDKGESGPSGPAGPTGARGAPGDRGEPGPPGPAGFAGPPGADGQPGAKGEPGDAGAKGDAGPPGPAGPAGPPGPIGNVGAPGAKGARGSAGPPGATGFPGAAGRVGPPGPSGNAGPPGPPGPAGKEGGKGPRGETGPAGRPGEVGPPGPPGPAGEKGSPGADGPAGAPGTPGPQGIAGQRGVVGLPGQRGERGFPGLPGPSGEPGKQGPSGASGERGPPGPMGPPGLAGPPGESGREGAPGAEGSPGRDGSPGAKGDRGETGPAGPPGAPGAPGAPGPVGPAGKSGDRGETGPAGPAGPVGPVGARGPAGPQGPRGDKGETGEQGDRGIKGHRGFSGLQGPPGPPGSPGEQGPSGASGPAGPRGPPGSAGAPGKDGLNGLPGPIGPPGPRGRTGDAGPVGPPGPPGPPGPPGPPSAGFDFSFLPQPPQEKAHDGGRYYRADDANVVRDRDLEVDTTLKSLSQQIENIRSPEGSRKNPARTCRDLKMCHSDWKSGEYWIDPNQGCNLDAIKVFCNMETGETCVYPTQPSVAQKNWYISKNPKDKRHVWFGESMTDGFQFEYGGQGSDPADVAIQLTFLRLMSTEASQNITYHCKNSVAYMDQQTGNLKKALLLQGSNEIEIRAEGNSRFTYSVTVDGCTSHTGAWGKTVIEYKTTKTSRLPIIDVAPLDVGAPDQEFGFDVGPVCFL
UniProt Q8IY22: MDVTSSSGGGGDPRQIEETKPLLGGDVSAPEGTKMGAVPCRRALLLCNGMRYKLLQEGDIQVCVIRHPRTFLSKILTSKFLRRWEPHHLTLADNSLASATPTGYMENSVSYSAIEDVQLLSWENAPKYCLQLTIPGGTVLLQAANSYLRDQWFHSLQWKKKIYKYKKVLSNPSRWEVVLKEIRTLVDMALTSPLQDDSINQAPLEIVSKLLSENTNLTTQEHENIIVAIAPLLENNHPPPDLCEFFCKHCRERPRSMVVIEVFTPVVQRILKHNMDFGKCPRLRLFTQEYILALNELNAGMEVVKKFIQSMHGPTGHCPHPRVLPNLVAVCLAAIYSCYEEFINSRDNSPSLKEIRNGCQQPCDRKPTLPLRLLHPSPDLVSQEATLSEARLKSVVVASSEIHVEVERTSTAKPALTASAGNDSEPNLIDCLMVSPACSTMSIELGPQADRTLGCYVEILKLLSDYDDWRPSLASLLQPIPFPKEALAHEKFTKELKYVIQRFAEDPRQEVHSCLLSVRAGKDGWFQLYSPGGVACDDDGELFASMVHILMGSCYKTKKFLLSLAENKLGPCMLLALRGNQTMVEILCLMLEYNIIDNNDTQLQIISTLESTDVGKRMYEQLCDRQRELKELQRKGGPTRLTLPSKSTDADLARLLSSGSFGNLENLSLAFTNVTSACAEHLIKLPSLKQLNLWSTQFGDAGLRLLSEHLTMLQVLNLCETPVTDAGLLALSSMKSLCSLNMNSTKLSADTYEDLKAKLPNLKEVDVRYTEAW
UniProt Q9NWW5: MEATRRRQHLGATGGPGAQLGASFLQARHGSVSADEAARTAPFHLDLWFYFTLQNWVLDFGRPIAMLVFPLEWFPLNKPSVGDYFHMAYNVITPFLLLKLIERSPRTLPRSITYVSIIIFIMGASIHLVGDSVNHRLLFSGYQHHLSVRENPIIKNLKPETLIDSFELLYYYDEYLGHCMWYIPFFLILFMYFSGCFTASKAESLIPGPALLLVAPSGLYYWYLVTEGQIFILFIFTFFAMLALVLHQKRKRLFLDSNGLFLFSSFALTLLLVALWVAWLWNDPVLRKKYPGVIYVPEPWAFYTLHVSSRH
UniProt Q9Y4C5: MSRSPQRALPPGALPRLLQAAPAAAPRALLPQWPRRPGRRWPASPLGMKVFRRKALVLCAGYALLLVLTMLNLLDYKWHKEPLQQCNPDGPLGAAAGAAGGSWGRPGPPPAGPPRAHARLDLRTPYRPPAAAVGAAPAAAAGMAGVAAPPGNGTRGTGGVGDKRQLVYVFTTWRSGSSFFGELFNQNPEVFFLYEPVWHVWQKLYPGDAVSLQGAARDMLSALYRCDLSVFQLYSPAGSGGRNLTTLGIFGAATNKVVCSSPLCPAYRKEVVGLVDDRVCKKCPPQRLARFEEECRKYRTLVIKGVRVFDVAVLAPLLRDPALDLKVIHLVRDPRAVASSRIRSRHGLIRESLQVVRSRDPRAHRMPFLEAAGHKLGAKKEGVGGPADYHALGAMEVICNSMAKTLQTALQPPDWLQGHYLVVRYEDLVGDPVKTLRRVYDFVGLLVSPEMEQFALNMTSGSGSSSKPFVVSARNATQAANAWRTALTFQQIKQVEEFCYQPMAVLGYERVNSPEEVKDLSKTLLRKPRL
UniProt O75503: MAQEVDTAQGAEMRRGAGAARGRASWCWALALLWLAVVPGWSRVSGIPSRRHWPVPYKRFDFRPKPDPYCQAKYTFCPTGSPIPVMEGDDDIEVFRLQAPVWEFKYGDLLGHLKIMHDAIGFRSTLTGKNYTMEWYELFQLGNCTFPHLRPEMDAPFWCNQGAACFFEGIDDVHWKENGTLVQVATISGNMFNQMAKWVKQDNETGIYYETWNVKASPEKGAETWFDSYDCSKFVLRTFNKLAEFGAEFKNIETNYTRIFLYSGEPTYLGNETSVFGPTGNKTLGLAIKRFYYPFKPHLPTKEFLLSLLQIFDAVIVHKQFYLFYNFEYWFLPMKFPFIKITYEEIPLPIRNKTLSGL
UniProt P05452, whole entry, looked up: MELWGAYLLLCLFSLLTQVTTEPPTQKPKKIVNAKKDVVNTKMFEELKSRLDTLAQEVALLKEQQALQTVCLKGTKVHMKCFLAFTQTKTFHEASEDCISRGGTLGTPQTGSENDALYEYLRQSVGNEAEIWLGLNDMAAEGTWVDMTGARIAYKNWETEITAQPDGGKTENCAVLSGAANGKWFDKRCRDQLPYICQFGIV
UniProt Q9UFF9, whole entry, looked up: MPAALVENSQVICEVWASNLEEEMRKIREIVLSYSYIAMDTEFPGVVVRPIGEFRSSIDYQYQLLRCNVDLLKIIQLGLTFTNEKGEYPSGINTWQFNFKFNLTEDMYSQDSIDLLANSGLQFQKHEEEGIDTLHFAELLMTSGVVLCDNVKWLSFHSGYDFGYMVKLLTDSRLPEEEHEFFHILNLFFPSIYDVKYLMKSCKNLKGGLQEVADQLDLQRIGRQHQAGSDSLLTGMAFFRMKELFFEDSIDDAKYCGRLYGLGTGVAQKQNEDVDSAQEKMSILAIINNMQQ

What was measured:
Experiment in all cases: log2 fold change, soluble protein after heating vs DMSO (PISA); higher = thermal stabilisation; K562 cells, 10 uM, 30 min; active = over 0.2 and 3.5 SD of the protein, either way, in both replicates (recomputed)
[1] = compound: NC(=O)Nc1cc(-c2cccc(F)c2)sc1C(=O)N[C@H]1CCCNC1
Procedure, shortened: (§1)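 K562 cells at 2×10^6 cells/mL were exposed to 10 μM compound for 30 min, then aliquots were heated for 3 min across 48°C-58°C, pooled, and extracted in PBS containing 0.5% NP-40 at 4°C. The supernatant after 21,000xg for 90 min was taken as soluble protein and measured by TMTpro 16plex LC-MS/MS with channel sums equalised. Thermal stability is reported relative to control samples, with values from duplicates. Fold changes are given on a log2 scale.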

[2] = compound: NC(=O)c1cnc(N[C@@H]2CCCC[C@@H]2N)nc1Nc1cccc(-n2nccn2)c1
Procedure, shortened: as §1

[3] = compound: NC1(c2ccc(-c3nc4ccn5c(=O)[nH]nc5c4cc3-c3ccccc3)cc2)CCC1
Procedure, shortened: as §1

[4] = compound: NCC(=O)Nc1ccc(-n2nc(C(F)(F)F)cc2-c2ccc3c(ccc4ccccc43)c2)cc1
Procedure, shortened: as §1

entinostat = compound: Nc1ccccc1NC(=O)c1ccc(CNC(=O)OCc2cccnc2)cc1 [entinostat]
Procedure, shortened: as §1

vorinostat = compound: O=C(CCCCCCC(=O)Nc1ccccc1)NO [vorinostat]
Procedure, shortened: as §1

citarinostat = compound: O=C(CCCCCCNC(=O)c1cnc(N(c2ccccc2)c2ccccc2Cl)nc1)NO [citarinostat]
Procedure, shortened: as §1

silmitasertib = compound: O=C(O)c1ccc2c(c1)nc(Nc1cccc(Cl)c1)c1ccncc12 [silmitasertib]
Procedure, shortened: as §1

[5] = compound: O=C1NC(=O)C(c2cnc3ccccn23)=C1c1cn2c3c(cc(F)cc13)CN(C(=O)N1CCCCC1)CC2
Procedure, shortened: as §1

[6] = compound: c1cc(OCCN2CCCCC2)cc(-c2n[nH]c3ccc(-c4nnc[nH]4)cc23)c1
Procedure, shortened: as §1

entospletinib = compound: c1cn2cc(-c3ccc4cn[nH]c4c3)nc(Nc3ccc(N4CCOCC4)cc3)c2n1 [entospletinib]
Procedure, shortened: as §1

Row | Target | log2 fold change [1] | log2 fold change [2] | log2 fold change [3] | log2 fold change [4] | log2 fold change (entinostat) | log2 fold change (vorinostat) | log2 fold change (citarinostat) | log2 fold change (silmitasertib) | log2 fold change [5] | log2 fold change [6] | log2 fold change (entospletinib)
1 | COA1 (UniProt Q9GZY4) | inactive: -0.031 | inactive: -0.041 | inactive: -0.063 | inactive: -0.086 | inactive: -0.021 | inactive: 0.022 | inactive: 0.016 | inactive: -0.016 | inactive: -0.047 | inactive: 0.004 | inactive: 0.03
2 | CLIP4 (UniProt Q8N3C7) | inactive: -0.005 | inactive: -0.014 | inactive: 0.232 | inactive: -0.008 | inactive: -0.133 | inactive: -0.048 | inactive: 0.023 | inactive: 0.114 | inactive: -0.14 | inactive: -0.099 | inactive: 0.043
3 | CNPY4 (UniProt Q8N129) | inactive: -0.07 | inactive: -0.128 | inactive: 0.088 | inactive: 0.023 | inactive: 0.015 | inactive: -0.03 | – | inactive: 0.026 | – | – | –
4 | CKM (UniProt P06732) | inactive: 0.026 | inactive: -0.008 | inactive: -0.168 | inactive: -0.033 | inactive: 0.042 | inactive: 0.062 | inactive: 0.08 | inactive: 0.116 | inactive: -0.077 | inactive: -0.043 | inactive: -0.043
5 | CLDND1 (UniProt Q9NY35) | inactive: -0.016 | inactive: 0.088 | inactive: -0.02 | inactive: -0.066 | inactive: -0.032 | inactive: -0.001 | inactive: -0.014 | inactive: 0.046 | inactive: 0 | inactive: -0.097 | inactive: 0.104
6 | CMC2 (UniProt Q9NRP2) | inactive: 0.033 | inactive: 0.017 | inactive: -0.006 | inactive: -0.044 | inactive: -0.01 | inactive: -0.119 | inactive: -0.101 | inactive: 0.007 | inactive: -0.084 | inactive: -0.015 | inactive: -0.022
7 | CMPK1 (UniProt P30085) | inactive: -0.034 | inactive: -0.056 | inactive: -0.102 | inactive: 0.018 | inactive: -0.02 | inactive: 0.022 | inactive: 0.013 | inactive: 0.019 | inactive: -0.029 | inactive: -0.01 | inactive: 0.014
8 | CLN8 (UniProt Q9UBY8) | inactive: -0.062 | inactive: -0.002 | inactive: 0.334 | inactive: 0 | inactive: 0.058 | inactive: -0.061 | inactive: 0.064 | inactive: 0.075 | – | inactive: -0.095 | –
9 | CLPTM1L (UniProt G5E9Z2) | inactive: 0.139 | inactive: 0.237 | inactive: -0.175 | inactive: -0.028 | inactive: -0.012 | inactive: 0.022 | – | inactive: -0.05 | inactive: 0.445 | – | –
10 | CHPF2 (UniProt Q9P2E5) | inactive: -0.041 | inactive: 0.02 | inactive: -0.116 | inactive: 0.073 | inactive: 0.043 | inactive: -0.004 | – | inactive: 0.099 | inactive: 0.182 | – | –
11 | CLASP1 (UniProt Q7Z460) | inactive: -0.035 | inactive: -0.043 | inactive: -0.113 | inactive: -0.106 | inactive: 0.032 | inactive: 0.133 | inactive: 0.07 | inactive: 0.014 | inactive: -0.078 | inactive: -0.118 | inactive: 0.071
12 | CLCN2 (UniProt P51788) | inactive: 0.039 | inactive: 0.032 | inactive: -0.254 | inactive: -0.019 | inactive: 0.117 | inactive: 0.015 | – | inactive: 0.046 | inactive: 0.041 | – | –
13 | CLCC1 (UniProt Q96S66) | inactive: -0.025 | inactive: -0.065 | inactive: -0.006 | inactive: -0.026 | inactive: -0.008 | inactive: -0.025 | inactive: 0.016 | inactive: 0.031 | inactive: 0.012 | inactive: 0.004 | inactive: -0.023
14 | CINP isoform 3 (UniProt Q9BW66) | inactive: -0.026 | inactive: -0.011 | inactive: 0.049 | inactive: 0.003 | inactive: -0.101 | inactive: 0.005 | inactive: 0.01 | inactive: 0.064 | inactive: 0.027 | inactive: 0.008 | inactive: -0.004
15 | CLIC1 (UniProt O00299) | inactive: -0.046 | inactive: 0.016 | inactive: -0.009 | inactive: 0 | inactive: 0.006 | inactive: -0.008 | inactive: 0.008 | inactive: 0.016 | inactive: -0.072 | inactive: -0.027 | inactive: 0.01
16 | COL1A1 (UniProt P02452) | inactive: -0.109 | inactive: -0.1 | – | inactive: -0.125 | inactive: -0.163 | – | inactive: -0.103 | – | inactive: 0.099 | inactive: 0.797 | inactive: 0.227
17 | CMIP (UniProt Q8IY22) | inactive: 0.143 | – | inactive: -0.056 | – | inactive: 0.184 | inactive: 0.129 | inactive: 0.071 | inactive: 0.121 | inactive: 0.106 | inactive: -0.14 | inactive: 0.247
18 | CLIP1 isoform 2 (UniProt P30622) | inactive: 0.021 | – | inactive: -0.014 | inactive: -0.06 | inactive: -0.058 | inactive: -0.009 | inactive: 0.008 | inactive: -0.056 | inactive: 0.013 | inactive: -0.056 | inactive: 0.047
19 | CLP1 (UniProt Q92989) | inactive: -0.066 | – | inactive: -0.123 | – | inactive: 0.106 | – | inactive: 0.122 | inactive: -0.144 | – | inactive: 0.028 | inactive: 0.081
20 | CMTM4 (UniProt Q8IZR5) | inactive: -0.194 | inactive: 0.2 | inactive: -0.049 | inactive: -0.1 | inactive: -0.057 | – | inactive: 0.124 | inactive: 0.023 | inactive: -0.168 | inactive: -0.214 | inactive: 0.045
21 | CLN6 (UniProt Q9NWW5) | inactive: 0.077 | inactive: -0.229 | inactive: 0.005 | inactive: 0.34 | inactive: -0.164 | – | inactive: 0.03 | inactive: 0.01 | inactive: 0.026 | inactive: -0.052 | inactive: -0.066
22 | CHST2 (UniProt Q9Y4C5) | inactive: 0.055 | inactive: 0.111 | inactive: 0.113 | – | inactive: -0.041 | – | – | inactive: -0.021 | inactive: -0.121 | – | –
23 | CLN5 (UniProt O75503) | inactive: -0.133 | inactive: -0.41 | active: -0.858 | – | inactive: 0.02 | inactive: -0.087 | – | inactive: 0.192 | inactive: -0.014 | – | –
24 | CNTRL (UniProt Q7Z7A1) | inactive: -0.272 | inactive: -0.084 | – | inactive: 0.033 | inactive: -0.121 | – | inactive: 0.11 | – | – | inactive: -0.002 | inactive: 0.051
25 | CLEC3B (UniProt P05452) | inactive: 0.012 | inactive: -0.01 | inactive: -0.078 | inactive: -0.167 | inactive: -0.111 | – | inactive: -0.049 | inactive: 0.246 | inactive: 0.068 | inactive: 0.207 | inactive: 0.225
26 | CNBP (UniProt P62633) | inactive: 0.111 | inactive: 0.07 | inactive: 0.251 | – | inactive: -0.06 | inactive: -0.021 | inactive: -0.069 | inactive: 0.023 | – | inactive: -0.064 | inactive: 0.046
27 | COIL (UniProt P38432) | inactive: 0.15 | inactive: -0.056 | – | – | inactive: -0.003 | – | inactive: 0.062 | – | inactive: -0.157 | inactive: -0.086 | inactive: -0.197
28 | CNOT8 (UniProt Q9UFF9) | inactive: 0.07 | – | inactive: -0.257 | inactive: -0.216 | inactive: 0.032 | – | inactive: -0.015 | inactive: -0.069 | inactive: 0.049 | inactive: -0.009 | inactive: 0.046
29 | CIP2A (UniProt Q8TCG1) | inactive: -1.03 | – | inactive: 0.093 | – | inactive: -0.107 | inactive: -0.253 | – | inactive: 0.398 | inactive: 0.21 | – | –
30 | CLIC6 (UniProt Q96NY7) | inactive: -0.219 | – | inactive: -0.164 | inactive: -0.127 | inactive: -0.041 | – | inactive: -0.045 | inactive: 0.091 | inactive: -0.259 | inactive: 0.079 | inactive: 0.143

Single records (already shown). Values in the order: log2 fold change [1]	log2 fold change [2]	log2 fold change [3]	log2 fold change [4]	log2 fold change (entinostat)	log2 fold change (vorinostat)	log2 fold change (citarinostat)	log2 fold change (silmitasertib)	log2 fold change [5]	log2 fold change [6]	log2 fold change (entospletinib)
COL1A1 (UniProt P02452) is entered as inactive: -0.109	inactive: -0.1	–	inactive: -0.125	inactive: -0.163	–	inactive: -0.103	–	inactive: 0.099	inactive: 0.797	inactive: 0.227
CHST2 (UniProt Q9Y4C5) is entered as inactive: 0.055	inactive: 0.111	inactive: 0.113	–	inactive: -0.041	–	–	inactive: -0.021	inactive: -0.121	–	–
